Data from PubChem BioAssay AID1458 (National Center for Advancing Translational Sciences (NCATS), 2008).
About 5,900 (2.8%) of roughly 210,000 compounds were called active. Roughly 5% stayed inconclusive and do not appear here. The call rests on the fitted dose curve; in most records, active means well fitted activation curve with a large enough effect; inconclusive means small, poorly fitted or top-dose-only effect; inactive means no such curve, though single readings can be large or run the other way. The list shows a part of the results, in another mix than the full data. Where no call is shown, the source filed none.

Assay: qHTS Assay for Enhancers of SMN2 Splice Variant Expression; further: nearly all actives have a fitted effect of over 55% in size; on activity change, positive = activation: % of control where 0% means no effect
Settings: HEK293 SMN2-luciferase splicing reporter, luminescence, 30-36 h; activity change, positive = activation: at 46.1 µM (top of the series) unless noted
From the text: NIH Chemical Genomics Center [NCGC] NIH Molecular Libraries Probe Production centers Network [MLPCN] MLPCN Grant: R03 MH084179-01 Assay Submitter (PI): Elliot Androphy NCGC Assay Overview: Spinal muscular atrophy (SMA) is caused by insufficient levels of the survival motor neuron protein SMN. The SMN locus on chromosome 5q13 contains two inverted copies of SMN called SMN1 and SMN2 which are 99% identical at the amino acid level. SMN1 is a fully functional protein and SMN2 skips exon 7 90% of the time. Skipping of exon 7 produces non-functional protein product. 10% of the SMN2 protein includes exon 7 and is fully functional. In the SMA disease state, mutations in the SMN1 locus are the cause of the disease state. Because only 10% of SMN2 is of the fully functional form, it is not sufficient to overcome the deficiency produced by the loss of the SMN1 product. A therapy that either increase the amount of SMN2 product made or to increase the inclusion of exon 7 has been proposed for the treatment of SMA. We have designed an assay to identify small molecules that can increase the amount of functional SMN2 product by appending a luciferase reporter gene after the native SMN2 gene, such that inclusion of exon 7 in the expressed product places the luciferase sequence in frame, thus generating functional luciferase enzyme.
NCGC Assay Protocol Summary: This screen utilizes a luciferase reporter gene assay, combining the promoter and splicing based cassettes in tandem with the major portion of the native SMN2 cDNA, and then transfected into HEK293 cells. Compounds that increase luciferase signal presumably enhance expression of the functional SMN2 splice variant. Passaging media contained DMEM w/ glutamax (+phenol red) 10% FCS, 1x pen/strep, 200 ug/ml hygro, 1x sodium pyruvate. Assay media contained DMEM w/ glutamax (-phenol red) 10% FCS, 1x pen strep, 1x pyruvate Sequence, Parameter, Value, Description (1) Cells, […], 2000 cells/well, 1536 TC treated White solid bottom plate (2) Time, 10-12 hours, 37C 5% CO2 (3) Compound, 23 nl, MLSMR Library (4) Control Compound, 23 nL, Sodium butyrate st 4.5mM (final) conc (5) Time, 30-36 hours, 37C 5% CO2 (6) Reagent, 3 ul, One Glo (TM) from Promega (7) Time, 5-15 minutes, Room temp (8) Detector, Viewlux: luminescent read, 60 second integration, high speed 2x binning Keywords: Spinal muscular atrophy, SMA, SMN2, high throughput screening, MLSMR, MLPCN, NIH Roadmap, qHTS and NCGC
Potency means the concentration at half of the fitted maximal effect.

SMILES | activity change, positive = activation | Potency
Cc1ccc(C)c(NC2=NS(=O)(=O)c3ccccc32)c1 | 42.3% | –
CCCCNS(=O)(=O)c1ccc(NC(=O)C2CCCO2)cc1 (stereo unspecified) | inactive: -33.9% | –
O=C(CSc1ccc(-c2ccc3c(c2)OCO3)nn1)Nc1nccs1 | -12.9% | –
CC(C)c1cc(C(=O)Nc2cccc(Cl)c2)no1 | – | active: 11.2 µM
COc1ccc(Cl)cc1NC(=O)CN1CCC(n2nnc3cc(C)ccc32)CC1 | inactive: -58.8% | –
COC(=O)Cc1ccc(NC(=S)N2CCN(c3ccc(F)cc3)CC2)cc1 | inactive: -46.4% | –
COc1cc(CNc2cccc(C(=O)O)c2)cc(Br)c1OCC(=O)NC(C)(C)C | 9.2% | –
O=C(Nc1cccc(C(F)(F)F)c1)c1cnc2n(c1=O)CCS2 | inactive: -19.5% | –
COc1ccc(C)cc1NC(=O)c1ccccc1NS(=O)(=O)c1ccc(Cl)s1 | -57% | –
C=CCSc1nnc2c(n1)OC(c1c(C)[nH]n(-c3ccccc3)c1=O)Nc1ccccc1-2 (stereo unspecified) | 31.9% | –
CCOC(=O)C(Cc1cc(C(C)=O)ccc1OCC)C(=O)OCC | 33.8% | –
Cc1ccc(C)c(NC(=O)CSc2ccc(-c3ccco3)nn2)c1 | 30.1% | –
Cc1cccc(OCc2nnc(SCC(=O)Nc3cc(C)on3)n2C)c1 | 38% | –
CC(C)Cn1c2nc3ccccc3nc2c2c(=O)n(CCN3CCOCC3)cnc21 | 33.3% | –
CC(=O)Cc1nsc(NC(=O)c2cccs2)n1 | 34.4% | –
Cc1cc(C(=O)COc2cccc(-n3cnnn3)c2)c(C)n1-c1ccccc1 | inactive: -32.3% | –
Cc1ccc(NC(=S)c2nc3ccccc3[nH]2)c(C)c1 | – | active: 5.62 µM
Cc1ccccc1C(=O)NCCSc1ccccc1 | – | active: 12.6 µM
Cc1cccc(/N=C/c2nc(-c3ccccc3Br)oc2O)n1 | inactive: -21.6% | –
CCOC(=O)N1CCC(Nc2c(Nc3ccc(F)cc3)c(=O)c2=O)CC1 | 52.9% | –
CCOC(=O)NC(=O)c1cn(C(CC)CO)c(=O)[nH]c1=O (stereo unspecified) | -27.5% | –
Cc1ccc(C(=O)Nc2cccc(C(=O)O)c2)cc1S(=O)(=O)N1CCOCC1 | – | active: 12.6 µM

SMILES | activity change, positive = activation | Potency
O=C(Nc1ccccc1C(=O)N/N=C/c1ccncc1)c1ccccc1 | 136% | –
COc1cc(C(=O)OC2CCN(C)CC2)cc(OC)c1OC | 37.5% | –
CCN1CCCC1CNC(=O)C(=O)Nc1cccc(OC)c1 (stereo unspecified) | 10% | –
CCN1/C(=C/c2ccc3cc(C)ccc3[n+]2CC)Sc2cc(C)ccc21 | inactive: -63.1% | –
Cc1ccc(NS(=O)(=O)c2ccc(C(=O)N3CCN(c4ncccn4)CC3)cc2)cc1 | inactive: -47.7% | –
Cc1c(NC(=O)CCSCCc2ccccn2)cccc1[N+](=O)[O-] | -34.9% | –
Cc1ccc(CNC2=NCCCCC2)n1C | 44.6% | –
O=C(CCCC(=O)OCC(=O)NC1CCCC1)Nc1ccccn1 | 54.7% | –
CCOC(=O)c1ccc(N2CC(O)=C(c3nc4ccccc4c(=O)[nH]3)C2=N)cc1 | 42.1% | –
O=C(c1ccc(S(=O)(=O)N2CCOCC2)cc1)N1CCN(C2=NS(=O)(=O)c3ccccc32)CC1 | 29.8% | –
O=C(Nc1nnc(-c2ccc3c(c2)CCCC3)o1)c1ccccc1 | inactive: -48.1% | –
CCc1c(C)sc(NC(=O)c2cnn3cccnc23)c1C#N | 25.6% | –
COc1ccc(-n2cccc2/C=C/[N+](=O)[O-])cc1 | inactive: -95.6% | –
C#CC(=O)N(c1cc(OC)ccc1OC)C(C(=O)NC1CCCC1)c1cccs1 (stereo unspecified) | inactive: -33.7% | –
Cn1c(=O)n(C)c2cc(NC(=O)c3cc4ccccc4o3)ccc21 | 82% | –
O=C(c1c[nH]c(C(=O)N2CCN(c3ccccc3F)CC2)c1)c1cccc(Cl)c1Cl | inactive: -52.8% | –
CCCN(CCC)CCCNC(=O)c1nn(-c2cccc(OC)c2)c(=O)c2ccccc12 | -23.6% | –
Cc1ccc2c(c1)C(=O)c1ccccc1CS2=O (stereo unspecified) | inactive: -44.8% | –
COC(=O)c1cccc(S(=O)(=O)N2CCC(n3nnc4cc(F)ccc43)CC2)c1 | inactive: -38.3% | –
O=C(COC(=O)c1ccccc1)Nc1ccccc1Br | 34.1% | –
COc1ccc(-n2nnc(C(=O)Nc3ccccc3F)c2N)cc1 | – | active: 7.08 µM
CC(C)c1ccccc1S(=O)(=O)c1cc(N)c2ncccc2c1[N+](=O)[O-] | inactive: -37.5% | –

SMILES | activity change, positive = activation | Potency
O=C(CSc1c2c(nc3cc(Cl)ccc13)CCCC2)N1CCN(c2ccccc2F)CC1 | inactive: -32.1% | –
CC(=O)Nc1ccc(S(=O)(=O)N(Cc2ccco2)CC2CCCO2)cc1 (stereo unspecified) | 32% | –
CCOC(=O)N1CC=C2C(C#N)=C(N)C(C#N)(C#N)[C@H](c3ccccc3OCC)[C@H]2C1 | 47.6% | –
CCOc1cc(-c2c(C#N)c(N)nc3c2CCc2ccccc2-3)ccc1O | – | active: 12.6 µM
COc1cc(C(=O)N/N=c2/sc3ccccc3n2C)cc(OC)c1OC | inactive: -67% [at 1.84 µM] | –
COc1cccc(C2CC(c3ccc(Cl)cc3)Nc3nc(N)nn32)c1 (stereo unspecified) | 19.9% | –
Cc1ccc2[nH]c3c(NCCN4CCOCC4)ncnc3c2c1 | inactive: -31.6% | –
Nc1ccc2nc(-c3ccc(O)cc3)sc2c1 | – | active: 1.41 µM
Cc1sc(NC(=O)c2ccc(Cl)s2)c(C(N)=O)c1C | – | active: 10 µM
CC1(c2ccccc2)NC(=O)N(N)C1=O (stereo unspecified) | 45.3% | –
COc1cc2cc(C(c3nnnn3C(C)(C)C)N3CCc4ccccc4C3)c(=O)[nH]c2cc1OC (stereo unspecified) | 54.5% | –
O=C(COc1cccc(NC(=O)c2cccc([N+](=O)[O-])c2)c1)c1ccc(F)cc1 | inactive: -69.7% | –
COc1cc(-c2nnc(SCC(=O)N(Cc3ccccc3)C(C)(C)C)o2)cc(OC)c1OC | inactive: -31.2% | –
Cc1ccc(N/C=C/C(=O)c2ccc(C)cc2)cc1 | 28.3% | –
COc1ccc(NS(=O)(=O)c2ccc3nc(COc4ccc(C#N)cc4)[nH]c3c2)cc1 | inactive: -12.3% | –
CC(Sc1nnc2ccccn12)C(=O)Nc1ccc(Cl)cn1 (stereo unspecified) | 31.8% | –
COc1ccc(-c2nn(-c3ccccc3)cc2/C=C/C(=O)NCCCn2ccnc2)cc1OC | 47.4% | –
Cc1ccc2nc3ccc(N4CCN(C)CC4)nn3c(=O)c2c1 | 104% | –
CCn1cc(C(=O)NCc2ccco2)c(=O)c2cc(F)c(N3CCN(C(=O)c4ccco4)CC3)cc21 | 37.4% | –
CSc1nnc(-c2cccc(C)c2)n1N | 38.3% | –
O=C(CCCNS(=O)(=O)c1cccs1)N1CCN(c2cccc(Cl)c2)CC1 | inactive: -60.7% | –
OC1CN=C2CCCc3c2n(c2ccc(Cl)cc32)C1 (stereo unspecified) | 46.2% | –

SMILES | activity change, positive = activation | Potency
COc1ccc(Nc2nc(C)nc3c2nnn3Cc2ccccc2)cc1OC | inactive: -78.2% | –
O=S(=O)(Nc1cccc2cccnc12)c1ccc(S(=O)(=O)N2CCCC2)cc1 | -42.4% | –
O=C(CNC(=O)c1ccc(-c2ccccc2)cc1)OCc1ccc(Br)cc1 | – | active: 3.55 µM
Cc1[nH]c(=O)[nH]c(=O)c1S(=O)(=O)N1CCCC(C(=O)NCCC2=CCCCC2)C1 (stereo unspecified) | -33.8% | –
CC(=O)NCCOc1cccc2ccccc12 | 40.8% | –
CCOC(=O)c1cc(C(=O)Nc2cccc(C)c2)nn1C | – | active: 12.6 µM
O=C(c1ccco1)N1CCN(C2=NS(=O)(=O)c3ccccc32)CC1 | 34.2% | –
COc1ccc(S(=O)(=O)c2nnn(-c3ccc(C)c(Cl)c3)c2C)cc1 | inactive: -50.8% | –
Cc1ccc(NC(=O)CCS(=O)(=O)c2cc(Br)cc3c2N(C(=O)C2CC2)CC3)cc1 | 20.5% | –
CCOC(=O)c1c(Cc2ccccc2)c[nH]c1C | inactive: -35% | –
COc1ccc2nc(SCc3ccccc3)nc(C)c2c1 | – | active: 11.2 µM
Cc1ccc(-c2nc3ccccc3[nH]2)cc1NC(=O)c1sc2ccccc2c1Cl | inactive: -58.7% | –
Cc1ccc(-c2c3c(=O)n(C)c(=O)n(C)c3cn2N2CCOCC2)cc1 | 32.7% | –
COc1ccc2cnn(CCOc3ccccc3)c(=O)c2c1OC | – | active: 11.2 µM
COc1ccc(/C=C/C=C2\N=C(SC)SC2=O)cc1 | 39.1% | –
COC(=O)Cc1c(C)c2ccc(OCC(C)=O)c(C)c2oc1=O | – | active: 12.6 µM
Cc1cccc(Nc2nc(-c3ccc4c(c3)OCCO4)cs2)c1 | – | active: 11.2 µM
O=C(O)C1CCCCC1C(=O)NCCc1ccc(Cl)cc1 (stereo unspecified) | 25% | –
CC1(C)CC2CC(C)(CN2S(=O)(=O)c2ccc(C(=O)Nc3ccc(S(=O)(=O)N4CCOCC4)cc3)cc2)C1 (stereo unspecified) | -68.2% | –
O=S(=O)(c1ccc(Oc2ccc(Br)cc2)cc1)N1CCOCC1 | -70.2% | –
CCC(=O)n1nc(-c2ccc(OC)cc2)nc1NCc1cccs1 | 32.3% | –
Cc1cc(C)n(CCc2nc(-c3ccc(F)cc3)cs2)n1 | -70.5% | –

Looked up one by one from the entries so far (four):
SMILES | activity change, positive = activation | Potency
CCOc1cc(-c2c(C#N)c(N)nc3c2CCc2ccccc2-3)ccc1O | – | active: 12.6 µM
CSc1nnc(-c2cccc(C)c2)n1N | 38.3% | –
Cc1ccc(NS(=O)(=O)c2ccc(C(=O)N3CCN(c4ncccn4)CC3)cc2)cc1 | inactive: -47.7% | –
CCOC(=O)c1c(Cc2ccccc2)c[nH]c1C | inactive: -35% | –

Following part.

SMILES | activity change, positive = activation | Potency
CCN1CCN(c2cc(C(C)(C)C)nc3c(-c4ccccc4)c(C)nn23)CC1 | -41.5% | –
CCOc1ccc(C)cc1S(=O)(=O)NC1CCCCC1 | 49.8% | –
COc1ccc(CCNC(=O)CC(c2ccccc2)c2cccc(C)c2O)cc1OC (stereo unspecified) | -50.7% | –
O=C(Cc1c(F)cccc1Cl)Nc1cccnc1 | 76.9% | –
COc1ccccc1-n1c(CNc2c(C)cccc2C)nnc1SCC(=O)N1CCOCC1 | 22.3% | –
Cc1cc(-c2n[nH]c(=S)o2)c(C)n1-c1ccccc1 | – | active: 7.08 µM
Cc1cc(=O)oc(C)c1C(=O)NCc1c(F)cc(F)cc1F | 162% | –
O=C(NC1=NCCS1)c1ccc(OCC2CCCO2)cc1 (stereo unspecified) | – | active: 10 µM
CN(C)c1ccc(/C=C(\C#N)c2ccccn2)cc1 | -54% | –
CCc1c(O)nc(N2CCN(Cc3ccccc3)CC2)[nH]c1=O | 20.8% | –
CC(C)c1cc(C(N)=O)c(NC(=O)c2cccc(COc3ccc(Br)cc3)c2)s1 | 460% | –
CCOC(=O)c1c(NC(=O)COc2ncnc3ccccc23)sc(C)c1CC | -40.3% | –
Cc1ccc(N=Cc2nc(-c3ccc(C)cc3)oc2O)cc1 | -16.5% | –
COc1cc(C(=S)N2CCCC2)ccc1OS(=O)(=O)c1ccc(NC(C)=O)cc1 | inactive: -68.4% | –
COc1cc(C2CC(=O)N(CC(=O)Nc3ccccc3F)c3ccccc3S2)cc(OC)c1OC (stereo unspecified) | inactive: -34.2% | –
O=C(Nc1cc(Sc2ccccn2)cc([N+](=O)[O-])c1)c1cccc(Cl)c1 | -92.2% | –
O=C(c1cc2ccccc2oc1=O)N(Cc1ccco1)CC1CCCO1 (stereo unspecified) | 58.3% | –
CN(C)S(=O)(=O)N1CCN(CC(O)COc2ccc(C(=O)c3ccccc3)cc2)CC1 (stereo unspecified) | -65.5% | –
